The source of these data is publication doi:10.1101/783266.

The experiment deals with LRX4^ΔNTΔE-HA (Arabidopsis thaliana). Kind of experiment: co-IP.

No constants are given. Whether binding was seen depends on the method and setting. Binding seen in cells or lysates may run through a third protein. A result given as binding can be weak or reduced; the word gives no strength. Sequences can lack the tags named with a protein.

B1: extracellular domain (ECD) of FER fused to citrine (FER^ECD-citrine) or FLAG (FER^ECD-FLAG) (domain or fragment, UniProt Q9SCZ4 28-447)
chain: ADYSPTEKILLNCGGGASNLTDTDNRIWISDVKSKFLSSSSEDSKTSPALTQDPSVPEVPYMTARVFRSPFTYTFPVASGRKFVRLYFYPNSYDGLNATNSLFSVSFGPYTLLKNFSASQTAEALTYAFIIKEFVVNVEGGTLNMTFTPESAPSNAYAFVNGIEVTSMPDMYSSTDGTLTMVGSSGSVTIDNSTALENVYRLNVGGNDISPSADTGLYRSWYDDQPYIFGAGLGIPETADPNMTIKYPTGTPTYVAPVDVYSTARSMGPTAQINLNYNLTWIFSIDSGFTYLVRLHFCEVSSNITKINQRVFTIYLNNQTAEPEADVIAWTSSNGVPFHKDYVVNPPEGNGQQDLWLALHPNPVNKPEYYDSLLNGVEIFKMNTSDGNLAGTNPIPGPQVTADPSKVLRPTTRKSKSNTA
As for B1, the binding entry is “binds”.
